# Assay results reported in the supplement of paper PMC12595434, “Development of retinoid nuclear receptor pathway antagonists through targeting aldehyde dehydrogenase 1A3” (iScience, 2025).
# By UniProt entry, the sequences of proteins in these tests, tags left out. Where a name states a change or a piece, a line headed by the entry shows the natural chain unless it says otherwise.
# UniProt Q12857, whole entry: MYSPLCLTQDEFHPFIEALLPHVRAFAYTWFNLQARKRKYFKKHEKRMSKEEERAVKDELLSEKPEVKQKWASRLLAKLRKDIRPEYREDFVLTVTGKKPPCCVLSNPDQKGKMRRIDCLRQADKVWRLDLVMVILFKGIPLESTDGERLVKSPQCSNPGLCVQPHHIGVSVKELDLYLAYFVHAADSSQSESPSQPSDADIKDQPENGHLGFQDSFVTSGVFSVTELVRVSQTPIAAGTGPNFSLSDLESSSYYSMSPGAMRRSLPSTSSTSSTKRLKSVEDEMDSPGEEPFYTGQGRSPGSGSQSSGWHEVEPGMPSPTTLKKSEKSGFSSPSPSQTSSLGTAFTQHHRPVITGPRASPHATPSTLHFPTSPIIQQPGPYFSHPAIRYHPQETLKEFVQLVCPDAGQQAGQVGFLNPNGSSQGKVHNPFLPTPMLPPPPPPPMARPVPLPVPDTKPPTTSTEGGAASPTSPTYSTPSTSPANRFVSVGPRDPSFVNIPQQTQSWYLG
# UniProt Q02086: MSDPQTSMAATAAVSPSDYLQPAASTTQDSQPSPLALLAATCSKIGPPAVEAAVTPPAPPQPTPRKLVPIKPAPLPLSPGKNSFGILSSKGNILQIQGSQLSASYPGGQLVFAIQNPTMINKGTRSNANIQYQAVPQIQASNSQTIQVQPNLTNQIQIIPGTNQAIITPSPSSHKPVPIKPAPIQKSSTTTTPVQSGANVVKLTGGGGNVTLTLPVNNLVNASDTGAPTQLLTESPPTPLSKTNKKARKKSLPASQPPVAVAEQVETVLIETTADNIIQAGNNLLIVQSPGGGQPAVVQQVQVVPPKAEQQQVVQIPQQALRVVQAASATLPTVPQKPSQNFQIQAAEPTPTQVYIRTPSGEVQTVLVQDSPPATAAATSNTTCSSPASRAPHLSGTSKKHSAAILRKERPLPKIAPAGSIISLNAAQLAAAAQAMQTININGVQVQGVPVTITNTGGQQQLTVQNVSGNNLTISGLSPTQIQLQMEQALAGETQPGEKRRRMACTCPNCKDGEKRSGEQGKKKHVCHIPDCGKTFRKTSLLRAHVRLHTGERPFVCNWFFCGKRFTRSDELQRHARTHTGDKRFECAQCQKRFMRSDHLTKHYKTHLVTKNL
# UniProt P83876: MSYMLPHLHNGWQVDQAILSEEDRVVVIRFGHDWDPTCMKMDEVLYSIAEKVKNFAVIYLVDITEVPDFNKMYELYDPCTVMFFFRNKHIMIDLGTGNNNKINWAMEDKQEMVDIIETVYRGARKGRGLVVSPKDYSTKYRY
# UniProt Q04721: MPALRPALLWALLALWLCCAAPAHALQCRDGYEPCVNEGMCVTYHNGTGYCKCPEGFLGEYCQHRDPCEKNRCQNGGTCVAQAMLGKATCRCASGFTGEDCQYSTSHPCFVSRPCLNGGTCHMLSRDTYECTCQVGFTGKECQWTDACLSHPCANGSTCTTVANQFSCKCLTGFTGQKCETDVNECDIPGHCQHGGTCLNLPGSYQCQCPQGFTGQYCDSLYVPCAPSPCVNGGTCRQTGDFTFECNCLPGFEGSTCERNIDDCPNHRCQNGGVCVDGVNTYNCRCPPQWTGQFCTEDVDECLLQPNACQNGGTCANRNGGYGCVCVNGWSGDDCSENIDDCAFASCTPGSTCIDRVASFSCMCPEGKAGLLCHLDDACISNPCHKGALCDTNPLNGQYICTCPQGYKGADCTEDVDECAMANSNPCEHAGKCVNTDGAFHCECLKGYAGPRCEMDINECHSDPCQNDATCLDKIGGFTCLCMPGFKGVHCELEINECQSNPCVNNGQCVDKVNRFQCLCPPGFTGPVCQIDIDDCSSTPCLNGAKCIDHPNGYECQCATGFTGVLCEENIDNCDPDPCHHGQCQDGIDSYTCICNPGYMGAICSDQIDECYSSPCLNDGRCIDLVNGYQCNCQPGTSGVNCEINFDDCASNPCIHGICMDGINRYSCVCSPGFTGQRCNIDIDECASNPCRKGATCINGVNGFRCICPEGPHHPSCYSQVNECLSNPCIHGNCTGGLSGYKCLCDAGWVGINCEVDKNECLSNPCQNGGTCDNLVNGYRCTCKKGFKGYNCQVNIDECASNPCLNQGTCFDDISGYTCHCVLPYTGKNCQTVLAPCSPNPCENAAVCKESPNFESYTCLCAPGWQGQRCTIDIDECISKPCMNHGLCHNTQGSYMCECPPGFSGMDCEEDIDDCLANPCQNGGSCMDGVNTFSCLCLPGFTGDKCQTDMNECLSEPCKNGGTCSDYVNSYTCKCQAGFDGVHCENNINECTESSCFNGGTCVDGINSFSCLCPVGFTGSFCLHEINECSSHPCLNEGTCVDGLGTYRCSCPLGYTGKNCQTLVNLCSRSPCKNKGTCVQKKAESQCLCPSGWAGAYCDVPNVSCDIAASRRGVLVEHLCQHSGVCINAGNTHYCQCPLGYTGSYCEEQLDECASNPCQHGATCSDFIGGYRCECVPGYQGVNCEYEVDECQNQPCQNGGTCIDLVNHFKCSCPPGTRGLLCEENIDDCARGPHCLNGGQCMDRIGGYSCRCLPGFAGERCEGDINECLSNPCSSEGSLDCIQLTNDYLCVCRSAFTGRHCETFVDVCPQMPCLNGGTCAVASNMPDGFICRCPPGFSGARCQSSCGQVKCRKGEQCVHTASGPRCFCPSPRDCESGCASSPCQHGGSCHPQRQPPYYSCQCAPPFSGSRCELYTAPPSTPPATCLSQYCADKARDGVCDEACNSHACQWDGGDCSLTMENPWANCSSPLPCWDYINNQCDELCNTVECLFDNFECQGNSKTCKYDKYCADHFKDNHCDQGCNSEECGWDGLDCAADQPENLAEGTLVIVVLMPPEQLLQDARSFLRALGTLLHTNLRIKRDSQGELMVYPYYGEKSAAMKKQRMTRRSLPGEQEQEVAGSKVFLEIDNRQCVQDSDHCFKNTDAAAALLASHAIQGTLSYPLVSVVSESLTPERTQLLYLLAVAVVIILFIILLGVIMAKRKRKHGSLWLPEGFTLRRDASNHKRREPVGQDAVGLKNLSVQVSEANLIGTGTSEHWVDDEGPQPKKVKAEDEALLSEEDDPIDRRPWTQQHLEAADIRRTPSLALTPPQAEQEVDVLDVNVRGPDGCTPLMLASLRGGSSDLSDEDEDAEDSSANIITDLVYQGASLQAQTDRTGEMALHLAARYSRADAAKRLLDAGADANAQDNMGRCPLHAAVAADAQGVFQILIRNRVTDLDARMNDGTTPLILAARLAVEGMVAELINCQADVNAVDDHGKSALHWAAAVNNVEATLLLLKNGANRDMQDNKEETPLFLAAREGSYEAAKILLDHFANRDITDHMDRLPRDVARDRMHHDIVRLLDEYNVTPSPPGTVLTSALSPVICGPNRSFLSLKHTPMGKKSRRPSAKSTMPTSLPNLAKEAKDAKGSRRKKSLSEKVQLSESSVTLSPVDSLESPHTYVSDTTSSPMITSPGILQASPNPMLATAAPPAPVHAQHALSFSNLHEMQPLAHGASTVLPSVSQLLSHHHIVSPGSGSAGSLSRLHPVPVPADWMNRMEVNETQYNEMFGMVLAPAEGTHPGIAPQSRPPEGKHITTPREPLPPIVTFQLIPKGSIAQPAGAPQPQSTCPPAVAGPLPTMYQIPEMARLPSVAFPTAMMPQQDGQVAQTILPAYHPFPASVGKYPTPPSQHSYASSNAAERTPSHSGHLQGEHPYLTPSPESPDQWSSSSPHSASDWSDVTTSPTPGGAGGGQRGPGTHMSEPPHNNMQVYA
# UniProt Q12982: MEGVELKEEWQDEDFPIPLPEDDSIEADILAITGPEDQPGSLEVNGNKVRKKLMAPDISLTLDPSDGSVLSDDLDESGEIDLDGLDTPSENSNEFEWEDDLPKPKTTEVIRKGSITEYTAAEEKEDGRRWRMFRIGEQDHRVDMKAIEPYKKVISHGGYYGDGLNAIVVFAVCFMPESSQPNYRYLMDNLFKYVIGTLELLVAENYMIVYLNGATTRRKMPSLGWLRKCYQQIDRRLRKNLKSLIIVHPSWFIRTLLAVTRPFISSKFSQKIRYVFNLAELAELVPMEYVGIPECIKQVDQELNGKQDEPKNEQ
# UniProt Q04323: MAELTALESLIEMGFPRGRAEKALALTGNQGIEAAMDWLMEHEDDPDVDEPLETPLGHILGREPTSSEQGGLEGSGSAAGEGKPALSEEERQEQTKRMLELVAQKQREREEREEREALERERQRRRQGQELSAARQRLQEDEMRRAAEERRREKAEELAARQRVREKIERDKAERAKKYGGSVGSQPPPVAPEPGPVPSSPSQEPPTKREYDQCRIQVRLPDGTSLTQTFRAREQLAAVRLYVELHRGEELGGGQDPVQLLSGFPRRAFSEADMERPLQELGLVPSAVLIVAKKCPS
# UniProt Q04637, whole entry: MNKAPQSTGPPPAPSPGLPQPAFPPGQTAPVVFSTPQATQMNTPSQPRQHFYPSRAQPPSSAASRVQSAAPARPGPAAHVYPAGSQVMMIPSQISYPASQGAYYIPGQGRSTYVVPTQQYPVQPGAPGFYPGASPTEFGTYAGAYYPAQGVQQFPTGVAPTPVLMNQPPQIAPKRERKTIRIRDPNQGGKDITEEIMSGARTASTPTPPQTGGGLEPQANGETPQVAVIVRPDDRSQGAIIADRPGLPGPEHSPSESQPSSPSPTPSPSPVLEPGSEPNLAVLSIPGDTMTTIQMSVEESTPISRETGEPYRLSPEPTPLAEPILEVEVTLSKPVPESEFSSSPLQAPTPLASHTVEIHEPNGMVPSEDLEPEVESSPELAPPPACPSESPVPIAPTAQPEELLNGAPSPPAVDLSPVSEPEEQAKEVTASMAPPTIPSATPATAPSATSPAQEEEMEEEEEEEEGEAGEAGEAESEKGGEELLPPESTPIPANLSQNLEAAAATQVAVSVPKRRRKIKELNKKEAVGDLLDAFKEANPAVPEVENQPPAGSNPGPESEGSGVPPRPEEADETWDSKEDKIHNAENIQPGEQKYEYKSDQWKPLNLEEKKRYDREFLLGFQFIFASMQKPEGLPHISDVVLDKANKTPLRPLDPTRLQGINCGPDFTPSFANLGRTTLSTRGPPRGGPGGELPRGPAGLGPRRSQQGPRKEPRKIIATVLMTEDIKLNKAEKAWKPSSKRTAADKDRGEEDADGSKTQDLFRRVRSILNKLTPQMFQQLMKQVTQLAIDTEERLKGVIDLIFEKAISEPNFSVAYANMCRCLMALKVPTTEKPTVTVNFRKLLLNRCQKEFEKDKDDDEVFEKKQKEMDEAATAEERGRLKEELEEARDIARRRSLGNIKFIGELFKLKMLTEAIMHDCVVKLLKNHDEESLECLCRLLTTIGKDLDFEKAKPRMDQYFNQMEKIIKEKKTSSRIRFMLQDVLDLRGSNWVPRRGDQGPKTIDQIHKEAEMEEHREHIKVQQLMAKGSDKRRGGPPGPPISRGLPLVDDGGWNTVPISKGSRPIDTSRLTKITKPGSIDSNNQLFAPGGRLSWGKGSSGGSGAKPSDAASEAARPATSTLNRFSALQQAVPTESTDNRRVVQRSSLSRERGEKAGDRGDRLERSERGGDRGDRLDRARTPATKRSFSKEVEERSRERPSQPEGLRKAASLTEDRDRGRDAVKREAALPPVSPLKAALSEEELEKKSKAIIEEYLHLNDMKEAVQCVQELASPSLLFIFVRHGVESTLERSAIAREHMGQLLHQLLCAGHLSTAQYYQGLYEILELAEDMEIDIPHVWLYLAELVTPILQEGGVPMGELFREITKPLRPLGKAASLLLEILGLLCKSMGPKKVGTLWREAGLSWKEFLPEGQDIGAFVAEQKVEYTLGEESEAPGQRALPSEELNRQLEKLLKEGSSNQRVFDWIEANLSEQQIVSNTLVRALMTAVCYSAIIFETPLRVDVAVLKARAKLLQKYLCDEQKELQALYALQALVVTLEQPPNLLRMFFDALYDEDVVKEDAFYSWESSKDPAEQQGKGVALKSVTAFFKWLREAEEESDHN
# UniProt P79483, whole entry: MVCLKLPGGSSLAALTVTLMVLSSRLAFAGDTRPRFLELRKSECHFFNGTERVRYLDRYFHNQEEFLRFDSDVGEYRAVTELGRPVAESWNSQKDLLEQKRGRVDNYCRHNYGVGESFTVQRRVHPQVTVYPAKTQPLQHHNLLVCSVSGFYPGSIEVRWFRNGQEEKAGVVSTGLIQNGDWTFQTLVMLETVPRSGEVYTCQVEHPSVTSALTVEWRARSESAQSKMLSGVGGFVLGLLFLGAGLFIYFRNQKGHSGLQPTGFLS
# UniProt Q04917: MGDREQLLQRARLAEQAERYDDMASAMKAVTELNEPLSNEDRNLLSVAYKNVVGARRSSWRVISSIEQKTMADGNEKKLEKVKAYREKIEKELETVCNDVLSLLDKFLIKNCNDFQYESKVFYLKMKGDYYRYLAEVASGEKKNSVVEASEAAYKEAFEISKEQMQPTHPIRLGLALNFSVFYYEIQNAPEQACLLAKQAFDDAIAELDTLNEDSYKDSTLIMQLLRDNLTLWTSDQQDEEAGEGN
# UniProt P69905, whole entry: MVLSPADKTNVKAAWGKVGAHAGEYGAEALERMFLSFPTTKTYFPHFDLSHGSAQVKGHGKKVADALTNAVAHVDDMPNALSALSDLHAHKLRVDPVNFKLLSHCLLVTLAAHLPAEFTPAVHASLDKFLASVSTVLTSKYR
# Some of the results follow. The data scatter; read single values as rough.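 Many melting curves are irregular; where none melted, Tm was taken as 64 °C.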
# Compound: CCc1cnccc1C(=O)Nc1cc2c(cc1F)NC(=O)CC2
# Assay: melting temperature shift (DMSO Tm minus MBE1-treated Tm) in cellular thermal proteome profiling; higher = less thermal stabilization by MBE1 (negative = stabilized by MBE1)
# Conditions: A375; MBE1 concentration: 1 uM
row,Target,melting temperature shift
1,NFIA (UniProt Q12857),21.2 °C
2,UniProt Q02086,1.35 °C
3,TXNL4A (UniProt P83876),1.07 °C
4,NOTCH2 (UniProt Q04721),-0.416 °C
5,UniProt Q02156,5.06 °C
6,UniProt P80303,-3.01 °C
7,BNIP2 (UniProt Q12982),-0.664 °C
8,UBXN1 (UniProt Q04323),1.18 °C
9,CKAP4 (UniProt Q07065),0.189 °C
10,UniProt Q08357,-2.21 °C
11,UniProt Q06190,-0.0122 °C
12,TOP2B (UniProt Q02880),0.421 °C
13,ELP6 (UniProt Q0PNE2),-2.54 °C
14,GALK2 (UniProt Q01415),0.629 °C
15,TRIM26 (UniProt Q12899),0.202 °C
16,MRPS11 (UniProt P82912),-2.28 °C
17,EIF4G1 (UniProt Q04637),-0.55 °C
18,UniProt P79483,-2.93 °C

row,Target,melting temperature shift
1,RNASEL (UniProt Q05823),0.00641 °C
2,CSTF1 (UniProt Q05048),-2.29 °C
3,YWHAH (UniProt Q04917),-0.148 °C
4,UniProt P78563,0.151 °C
5,UniProt P80404,-0.384 °C
6,UniProt Q02952,-3.21 °C
7,CPSF1 (UniProt Q10570),0.0977 °C
8,LRP1 (UniProt Q07954),-0.0794 °C
9,PITPNA (UniProt Q00169),0.635 °C
10,FAAP100 (UniProt Q0VG06),0.318 °C
11,MRPS5 (UniProt P82675),1.12 °C
12,UniProt P69905,1.25 °C
13,UniProt Q02446,-0.325 °C
14,UniProt P84074,-0.698 °C
15,FOXK2 (UniProt Q01167),0.0897 °C
16,MRPS25 (UniProt P82663),-0.715 °C
17,NUP160 (UniProt Q12769),0.281 °C

# Given as tab-separated lines: entries from further up
row	Target	melting temperature shift
15	FOXK2 (UniProt Q01167)	0.0897 °C
16	MRPS25 (UniProt P82663)	-0.715 °C
